The list does not hold the whole screen: it gathers tests that were run many times, whatever their T/C, doses with no T/C, and many T/C values between a quarter and a half above the control. Further doses and runs are listed elsewhere. T/C gives the treated animals as a percentage of the vehicle group. Some doses have a count of surviving animals in place of a T/C: the source holds a T/C of zero for them, seemingly a mark for toxic or unscored doses. Some survivor counts are full or nearly so, which does not show that the dose was tolerated: the source hardly ever lists a survival T/C far under the control, and the zero likely stands for such cases as well. Survivors were counted at the toxicity check, usually on the fifth day, unless a day is given; later deaths do not show. Schedules are NCI's codes, read here as Q, the interval in days (D) or hours (H), X, the number of doses. Some entries were tested several times; the results are listed from low to high. For survival time, the PubChem record calls one and a half times the control and up active, and a quarter to a half above the control has no call in these data; cut-offs in other NCI protocols can differ. Some T/C values are followed by the survivors on the day toxicity was checked, most often the fifth; where none is given, no animal had died by that day.
System: P388 leukemia ip, CD2F1 mice, survival T/C
Assay: NCI In Vivo Anticancer Drug Screen. Data for tumor model P388 Leukemia (intraperitoneal) in CD2F1 (CDF1) mice
Details: T/C endpoint: median survival time, higher T/C = longer survival
[1] = dose: 240.0 mg/kg/injection, schedule: Q01DX005 (ip), vehicle: saline with Tween-80
[2] = dose: 100.0 mg/kg/injection, schedule: Q01DX001 (ip), vehicle: Klucel (hydroxypropylcellulose) (HPC)

NC(=S)N/N=C\c1ncccc1OCc1cccc(N)c1
T/C (dose: 12.5 mg/kg/injection, schedule: Q01DX009 (ip), vehicle: other): 130 % of control
T/C (dose: 25.0 mg/kg/injection, schedule: Q01DX009 (ip), vehicle: distilled water + Tween-80): 125 % of control [5 of 6 alive]
T/C (dose: 50.0 mg/kg/injection, schedule: Q01DX009 (ip), vehicle: distilled water + Tween-80): 131 % of control
T/C (dose: 50.0 mg/kg/injection, schedule: Q01DX009 (ip), vehicle: other): 127 and 141 % of control
T/C (dose: 100.0 mg/kg/injection, schedule: Q01DX009 (ip), vehicle: distilled water + Tween-80): 127 % of control
T/C (dose: 100.0 mg/kg/injection, schedule: Q01DX009 (ip), vehicle: other): 134 and 139 % of control
survivor count (dose: 200.0 mg/kg/injection, schedule: Q01DX009 (ip), vehicle: other): 5 of 6
survivor count (dose: 400.0 mg/kg/injection, schedule: Q01DX009 (ip), vehicle: other): 0 of 6 and 2 of 6

O=NN(CCCl)C(=O)OCCCSSCCCOC(=O)N(CCCl)N=O
T/C (dose: 6.25 mg/kg/injection, schedule: Q01DX009 (ip), vehicle: water): 127 % of control
T/C (dose: 12.5 mg/kg/injection, schedule: Q01DX009 (ip), vehicle: water): 127 % of control
T/C (dose: 25.0 mg/kg/injection, schedule: Q01DX009 (ip), vehicle: water): 136 % of control
survivor count (dose: 100.0 mg/kg/injection, schedule: Q01DX009 (ip), vehicle: water): 5 of 6
survivor count (dose: 200.0 mg/kg/injection, schedule: Q01DX009 (ip), vehicle: water): 0 of 6

Nc1nc(N)c2c(n1)NCN(OCCOc1ccc(Cl)cc1Cl)C2
survivor count [1]: 3 of 6

O=C(NC(=S)Nc1ccc(CCO)cc1)c1cccc(Br)c1
survivor count (dose: 15.0 mg/kg/injection, schedule: Q01DX005 (ip), vehicle: saline with Tween-80): 6 of 6
survivor count (dose: 30.0 mg/kg/injection, schedule: Q01DX005 (ip), vehicle: saline with Tween-80): 6 of 6
survivor count (dose: 60.0 mg/kg/injection, schedule: Q01DX005 (ip), vehicle: saline with Tween-80): 6 of 6
survivor count (dose: 120.0 mg/kg/injection, schedule: Q01DX005 (ip), vehicle: saline with Tween-80): 6 of 6

CC1=C(C(=O)NCc2ccccc2)C(c2cccc([N+](=O)[O-])c2)C(C(=O)NCc2ccccc2)=C(C)N1
survivor count (dose: 60.0 mg/kg/injection, schedule: Q01DX005 (ip), vehicle: Klucel (hydroxypropylcellulose) (HPC)): 6 of 6
survivor count (dose: 120.0 mg/kg/injection, schedule: Q01DX005 (ip), vehicle: Klucel (hydroxypropylcellulose) (HPC)): 6 of 6
survivor count (dose: 240.0 mg/kg/injection, schedule: Q01DX005 (ip), vehicle: Klucel (hydroxypropylcellulose) (HPC)): 6 of 6

Cc1ccc2c(NCCCCCCCCNc3c4ccccc4nc4cc(C)ccc34)c3ccccc3nc2c1
T/C (dose: 5.0 mg/kg/injection, schedule: Q01DX009 (ip), vehicle: water): 148 % of control
survivor count (dose: 10.0 mg/kg/injection, schedule: Q01DX009 (ip), vehicle: water): 3 of 6
survivor count (dose: 20.0 mg/kg/injection, schedule: Q01DX009 (ip), vehicle: water): 0 of 6
survivor count (dose: 40.0 mg/kg/injection, schedule: Q01DX009 (ip), vehicle: water): 0 of 6

[CH3][Sn]1([CH3])[O]C(=O)c2ccccc2C(=O)[O]1
T/C [2]: 129 % of control
survivor count [2]: 2 of 6
survivor count (dose: 200.0 mg/kg/injection, schedule: Q01DX001 (ip), vehicle: Klucel (hydroxypropylcellulose) (HPC)): 0 of 6
survivor count (dose: 400.0 mg/kg/injection, schedule: Q01DX001 (ip), vehicle: Klucel (hydroxypropylcellulose) (HPC)): 0 of 6

CC1=C(O)c2ccccc2C(=O)C1=O
survivor count (dose: 50.0 mg/kg/injection, schedule: Q01DX009 (ip), vehicle: saline with Tween-80): 6 of 6
survivor count (dose: 100.0 mg/kg/injection, schedule: Q01DX009 (ip), vehicle: saline with Tween-80): 3 of 6

Cc1ccc(S(=O)(=O)Nc2ccc3ncccc3c2)cc1
survivor count (dose: 400.0 mg/kg/injection, schedule: Q04DX003 (ip), vehicle: saline with Tween-80): 1 of 6

CN=C(NN(C)C)c1ccc(NC(=O)c2ccc(C(=O)Nc3ccc(C(=NC)NN(C)C)cc3)cc2)cc1
T/C (dose: 6.6 mg/kg/injection, schedule: Q01DX009 (ip), vehicle: saline with Tween-80): 127 and 130 % of control
T/C (dose: 9.9 mg/kg/injection, schedule: Q01DX009 (ip), vehicle: saline with Tween-80): 131 % of control
T/C (dose: 13.2 mg/kg/injection, schedule: Q01DX009 (ip), vehicle: saline with Tween-80): 130 % of control
survivor count (dose: 20.0 mg/kg/injection, schedule: Q04DX003 (ip), vehicle: saline with Tween-80): 5 of 6
T/C (dose: 20.0 mg/kg/injection, schedule: Q04DX003 (ip), vehicle: saline): 129 % of control
survivor count (dose: 30.0 mg/kg/injection, schedule: Q04DX003 (ip), vehicle: saline with Tween-80): 1 of 6
survivor count (dose: 40.0 mg/kg/injection, schedule: Q04DX003 (ip), vehicle: saline): 0 of 6
survivor count (dose: 80.0 mg/kg/injection, schedule: Q04DX003 (ip), vehicle: saline): 0 of 6

CCN(CC)CCn1ncc(Sc2cc([N+](=O)[O-])ccc2N)c(Cl)c1=O
survivor count [1]: 0 of 6

Nc1cccc(N)n1
survivor count (dose: 25.0 mg/kg/injection, schedule: Q01DX009 (ip), vehicle: saline): 6 of 6
survivor count (dose: 50.0 mg/kg/injection, schedule: Q01DX009 (ip), vehicle: saline): 0 of 6
survivor count (dose: 100.0 mg/kg/injection, schedule: Q01DX009 (ip), vehicle: saline): 0 of 6
survivor count (dose: 200.0 mg/kg/injection, schedule: Q01DX009 (ip), vehicle: saline): 0 of 6

O=C1OC(c2ccc([N+](=O)[O-])cc2)=N/C1=C\c1ccc(Cl)cc1
survivor count (dose: 6.25 mg/kg/injection, schedule: Q01DX009 (ip), vehicle: Klucel (hydroxypropylcellulose) (HPC)): 6 of 6
survivor count (dose: 25.0 mg/kg/injection, schedule: Q01DX009 (ip), vehicle: Klucel (hydroxypropylcellulose) (HPC)): 6 of 6
survivor count (dose: 50.0 mg/kg/injection, schedule: Q01DX009 (ip), vehicle: Klucel (hydroxypropylcellulose) (HPC)): 6 of 6
survivor count (dose: 100.0 mg/kg/injection, schedule: Q01DX009 (ip), vehicle: Klucel (hydroxypropylcellulose) (HPC)): 5 of 6
survivor count (dose: 200.0 mg/kg/injection, schedule: Q01DX009 (ip), vehicle: Klucel (hydroxypropylcellulose) (HPC)): 6 of 6
survivor count (dose: 400.0 mg/kg/injection, schedule: Q01DX009 (ip), vehicle: Klucel (hydroxypropylcellulose) (HPC)): 6 of 6

CCN1CCC[C@]2(C)[C@H]3CC[C@@]4(C)[C@@H](CC[C@]4(C)O)[C@@H]3CC[C@@H]12
survivor count (dose: 100.0 mg/kg/injection, schedule: Q01DX005 (ip), vehicle: Klucel (hydroxypropylcellulose) (HPC)): 0 of 6
survivor count (dose: 200.0 mg/kg/injection, schedule: Q01DX005 (ip), vehicle: Klucel (hydroxypropylcellulose) (HPC)): 0 of 6

Cc1c2ccccc2c(CSC(=N)N)c2ccccc12
T/C (dose: 2.2 mg/kg/injection, schedule: Q01DX009 (ip), vehicle: saline): 130 % of control
T/C (dose: 3.3 mg/kg/injection, schedule: Q01DX009 (ip), vehicle: saline): 130 % of control

CN(C)CCN1CC2Cc3ccccc3C1c1ccccc12 (stereo not drawn)
survivor count (dose: 400.0 mg/kg/injection, schedule: Q04DX003 (ip), vehicle: Klucel (hydroxypropylcellulose) (HPC)): 0 of 6

Cc1nsc(N)n1
survivor count (dose: 6.25 mg/kg/injection, schedule: Q01DX009 (ip), vehicle: saline): 6 of 6

CN(C)C(=S)n1c(=S)nc(N(C)C)sc1=S
survivor count (dose: 200.0 mg/kg/injection, schedule: Q01DX005 (ip), vehicle: saline with Tween-80): 0 of 6
